## Assay results

Source: PubChem BioAssay AID1159506 (NCATS, 2015).

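Luminescence from an EWS-FLI1 target-promoter (NR0B1) reporter, set against a CMV-promoter reporter, two days after silencing single genes in TC32 Ewing sarcoma cells. Each siRNA was applied at 20 nM. A z-score of the log NR0B1-over-CMV signal, less the median of siRNAs with the same seed; more negative means a stronger specific loss of the NR0B1 reporter.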

The strongest results of the screen are mostly left out here. Sequences are the guide (antisense) strand, without overhang.

siRNA | gene | seed-corrected z-score
AAUCUUUCCGCUAAUGAUC | LOC644841 | 0.009836
UCUCUUUCCAACUAUAUGC | ASCC1 | 2.047
UCUGAUCCACGUAAAGCCG | BBS1 | -0.2894
UCGAUGAGCAUUUCCAUGC | SPERT | -0.4499
AAUGGAAAGACCUCGGUCC | LSM1 | -0.5632
UCAAUUGUCUGGACUCAUC | TTC30A | 0.6511
UACUCCUCUAUUCUCAUCA | PSG8 | -0.8218
AUAUGGACCCACACCCUCC | ADIG | -0.5898
UUUUGGACAUGUUACUUCU | PSORS1C1 | 0.2994
UCUUCCGUAAGAAUCCACG | CIT | -0.2811
UCAGUAGUUCUCGUAGACU | CHST11 | -0.8804
UUAAGUCCCAGGUUGAGAG | PRRT4 | 0.1562
UACUAAGUAAAAAGGAGCC | SLF1 | 0.3404
UAUUUUCUUUGACUCCUAG | RNPS1 | 0.09989
AAUAAAUCAUUGCUCUUUC | RFPL4B | -0.971
AAUGUCCACGAAGUUUUCC | COA1 | 0.1979
UAGGACGUGAGGAAGAUGU | PLXNB2 | 0.2568
UUCCGUACAAUUCUGUAAG | SELV | -0.2349
ACGGUUGUAUCAUUCAUGG | PRLR | -1.548
UUGUGGAUAAAAGAAGAUU | VN1R5 | -0.5536
AUAUCGUUGAGCUUCCUUC | EFCAB11 | -0.5695
AAACGGAUUAACGCAGCUG | AGTR2 | -0.08184
UUUCAGAAUAGUCAACUAU | CCL18 | 0.265
AAUGUCCUCAUAGCACUGG | CORO1B | 0.6603
UACAACAUCAGAAGGUAGC | OAT | 0.2232
AUGCGAACAGCAUCCAUCU | CHMP2A | 0.4064
UUCAGACCCACUCACAUCC | SPRTN | -0.4554
UCACGUUUCAUGCAUCUCC | TMEM107 | -1.767
UCGUGUUGUCCAUAAAUUC | RPS28P6 | 1.948
UGUGCACCAGGUGCUAAGC | LSR | 0.2866
UAUCCAACUUGGUAAGUGC | ADSS | -0.07107
UUUGGAUACUCAAUAGGUG | ETFDH | 0.4618
UCUAUUGUCACCCUCGUCC | LY6K | 0.03841
UUCUGAGCAUCAUCUAGCC | ZBED3-AS1 | 0.9166
AACAGUUCUAGGAAGUUGC | PCYT1B | 0.151
UUGCGGUAGAUCUCUUUCC | KAT8 | -1.285
UUGUGACUCAGCUCCAUCU | MAD1L1 | 0.8489
ACUAAGACCAAAGUGUUCC | GALK2 | -0.2052
AAGACGAUAAAGAUCAGGC | ORAI1 | 0.857
AGAGGAACCACGUAUAGGA | OPN1SW | -0.1907
UACAGACCCACAGACCUCG | NCKAP5L | 0.1313
AGGAAGAUCAAUCUCGUGC | LDLRAD4 | 1.081
UGAGGAACCAUUUUCCUGC | MKL1 | -0.3324
AGAACAUCAAGCAUUAUAC | PNPLA10P | -0.07562
AAAUCGAUCAUUACCAUAG | GRIK2 | 0.06002
AGACUCAUAACCAAUACUG | SEC61B | 0.8697
UGUACCAUGACUCUUGAGC | LRRC49 | 0.07948
UGUGCUGACAGUGAAUCCC | EDIL3 | 0.05609
UUCAAUUAUAUUUUCAGCC | IARS2P1 | -0.6325
UACAUGUCCAAGGACUAUG | TDRD9 | -0.3492
UGAAGAUGUCGUGAAGUGC | OR4K14 | 0.6929
UAGAGGAGCGGUUAAAGGC | ZNF66 | -0.05895
UUUGUGAUCUGAGAGAGAG | GNB1 | -0.7241
UGGUCUAUUGUCAAAAUCC | F13B | -0.1996
UGUCCAGACAUAUACUACC | UBE2A | -0.2726
UUCUAUUCUGAGAUGAUCC | CENPC | -0.5741
UUCUAGCUCAGAAACACGG | CLTCL1 | -0.3328
AAAAGUAUUCAGGAUACUC | HSD17B12 | -0.3903
UUGAGGACCACUGAGUUCC | ALDH3A1 | 0.2264
UACGUUGUACUGCUGAGCA | SYN1 | -1.055
UUCGUAGCAAGAUAUGUUG | IFNGR2 | 0.7073
UGGUAUAGAACCAAAUUGC | SLC2A9 | -1.695
ACCGAUUCAACUAAUGAUC | PPA2 | -0.0872
GAUCUGGAAAGUUUCAUUU | HSFY1 | -0.3787
UUUAGAUUCUGGGCGCACU | ZNF689 | 0.6942

The first 7 entries again:

siRNA,gene,seed-corrected z-score
AAUCUUUCCGCUAAUGAUC,LOC644841,0.009836
UCUCUUUCCAACUAUAUGC,ASCC1,2.047
UCUGAUCCACGUAAAGCCG,BBS1,-0.2894
UCGAUGAGCAUUUCCAUGC,SPERT,-0.4499
AAUGGAAAGACCUCGGUCC,LSM1,-0.5632
UCAAUUGUCUGGACUCAUC,TTC30A,0.6511
UACUCCUCUAUUCUCAUCA,PSG8,-0.8218